According to publication PMC11169420, “The kinase ZYG-1 phosphorylates the cartwheel protein SAS-5 to drive centriole assembly in C. elegans” (EMBO Reports, 2024):
These are yes or no findings as the source states them, for the method shown. Sequences can lack the tags named with a protein.

Target: T1, GST-SAS-5 fragment spanning amino acids 108-404 (C-terminal 6X-His) (C. elegans) (UniProt Q20010)
T1 sequence: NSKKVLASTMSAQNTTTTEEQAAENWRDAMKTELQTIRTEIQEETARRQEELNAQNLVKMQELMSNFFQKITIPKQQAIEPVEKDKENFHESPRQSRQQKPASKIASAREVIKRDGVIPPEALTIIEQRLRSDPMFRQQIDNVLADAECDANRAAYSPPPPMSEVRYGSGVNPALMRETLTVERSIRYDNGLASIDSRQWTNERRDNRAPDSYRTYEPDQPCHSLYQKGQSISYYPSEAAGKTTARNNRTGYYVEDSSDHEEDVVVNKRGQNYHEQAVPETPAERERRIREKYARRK
Assay: pull-down; GST-SAS-5 baits (4.32 mM as printed) on magnetic glutathione beads, blocked with Odyssey blocking buffer; ZYG-1 prey (0.2 mM as printed) 1 h at 4 °C; washed with 50 mM Tris pH 8.0, 50 mM NaCl, 5 mM DTT; immunoblot with anti-GST and anti-ZYG-1; GST alone as negative control; both purified

B1: ZYG-1::His6, full-length, refolded in vitro (enzyme, UniProt Q9GT24 1-706)
chain: MSGGKSGSRLSAYSHLKEIGKGGFGVVYAAQRENGEKVAIKRIDKKVPKNRVWTEIQTMKELKKSKYVVEFYEDFVEDGYTYIVMELCEGGSLQAYVREHGALDDATAVHVLRQLISAVSFMHRVNVIHRDLSAGNVFIKDSKKKKMTVKLGDFGLATTLGRGETTCTIVGTPGFIAPQVYDQEYTQSADVYSLGAVLYTMLTARNPPPKGLPPTCGMSPNAARLVEQMMDTDAKKRIPLTQIVLSEFMYENTNENAVIFSREHSRDGRRQRSREPVRSSRDDRSRDGRALIRSSSQPAHSGRAPLSNRPIHDRMPSTSSRGFDSERGRERDRDSGRGTVPPSREDRNRSQLWPIRMDRLEGQRVCTAGGRYIVELDTRCRFEVAAQGNFVKRILIVEVDEMVQTVYVHRIPDRTVRGRNGEEELITLTNNPFVYTSYSQMPKEVQNDYMRLQKMVAVTISGRVAKVTFRRPSQFPDAQAQLMENGDLRIKLPRSVIVRKMDNGEIFNCIDGIATQKQAVSGITLTKVNEVYKYLIRFEQCLNGMDRGMVCFPIVFSAGTNMVGSSPSSLMPSGSSQTSRFPFSNLSNNQPSLVPHSAPFLTKPTSSQRASSANVQRRVSTDENSSPSVAPSKYKIKIDPTTQKVRSIQATDGRVLRCSTSKADQFIFTDPAIRPDDQRFMRTDRVPDRASEMLHTLCERMRKLHQ
binding: no binding (tested: 0.2 mM prey (so in the source))
